# Data from patent US5202310A, “Cyclosporine metabolites” (priority 1990, dated 1993).
# Test system: monoclonal antibody which had no specificity towards amino acid residue 6 and weakly recognized amino acid residue 1 of CsA
# Assay: RIA recognition by nonspecific monoclonal antibody
# Assay type: binding
# Details: RIA of gradient HPLC fractions of bile
SMILES,Recognition by nonspecific monoclonal antibody,Recognition by nonspecific monoclonal antibody (listed as CM-H)
"CC[C@@H]1NC(=O)[C@H]([C@H](O)[C@H](C)C/C=C/CO)N(C)C(=O)[C@H](C(C)C)N(C)C(=O)[C@H](CC(C)C)N(C)C(=O)[C@H](CC(C)C)N(C)C(=O)[C@@H](C)NC(=O)[C@H](C)NC(=O)[C@H](CC(C)C)N(C)C(=O)[C@H](C(C)C)NC(=O)[C@H](CC(C)C)N(C)C(=O)CN(C)C1=O [OL-17, 1-hydroxy cyclosporine A]",very clearly recognized,–
C/C=C/C[C@@H](C)[C@@H](O)[C@H]1C(=O)N[C@@H](CC)C(=O)N(C)CC(=O)N(C)[C@@H](CC(C)C)C(=O)N[C@@H](C(C)C)C(=O)N(C)[C@@H](CC(C)C)C(=O)N[C@@H](C)C(=O)N[C@H](C)C(=O)N(C)[C@@H](CC(C)(C)O)C(=O)N[C@@H](CC(C)C)C(=O)N(C)[C@@H](C(C)C)C(=O)N1C [CM Peak H],not detected,unreactive
"C/C=C/C[C@@H](C)[C@@H](O)[C@H]1C(=O)N[C@@H](CC)C(=O)N(C)CC(=O)N(C)[C@@H](CC(C)C)C(=O)N[C@@H](C(C)C)C(=O)N(C)[C@@H](CC(C)C)C(=O)N[C@@H](C)C(=O)N[C@H](C)C(=O)N(C)[C@@H](CC(C)(C)O)C(=O)N(C)[C@@H](CC(C)C)C(=O)N(C)[C@@H](C(C)C)C(=O)N1C [OL-1, 9-hydroxy cyclosporine A]",very clearly recognized,–
"CC[C@@H]1NC(=O)[C@H]([C@H](O)[C@H](C)C/C=C/CO)N(C)C(=O)[C@H](C(C)C)N(C)C(=O)[C@H](CC(C)C)N(C)C(=O)[C@H](CC(C)(C)O)N(C)C(=O)[C@@H](C)NC(=O)[C@H](C)NC(=O)[C@H](CC(C)C)N(C)C(=O)[C@H](C(C)C)NC(=O)[C@H](CC(C)C)N(C)C(=O)CN(C)C1=O [OL-8, 1,9 dihydroxy cyclosporine A]",very clearly recognized,–
